B1: protein disulfide isomerase A4 (enzyme, UniProt P13667 21-645)
chain: VAGAEGPDEDSSNRENAIEDEEEEEEEDDDEEEDDLEVKEENGVLVLNDANFDNFVADKDTVLLEFYAPWCGHCKQFAPEYEKIANILKDKDPPIPVAKIDATSASVLASRFDVSGYPTIKILKKGQAVDYEGSRTQEEIVAKVREVSQPDWTPPPEVTLVLTKENFDEVVNDADIILVEFYAPWCGHCKKLAPEYEKAAKELSKRSPPIPLAKVDATAETDLAKRFDVSGYPTLKIFRKGRPYDYNGPREKYGIVDYMIEQSGPPSKEILTLKQVQEFLKDGDDVIIIGVFKGESDPAYQQYQDAANNLREDYKFHHTFSTEIAKFLKVSQGQLVVMQPEKFQSKYEPRSHMMDVQGSTQDSAIKDFVLKYALPLVGHRKVSNDAKRYTRRPLVVVYYSVDFSFDYRAATQFWRSKVLEVAKDFPEYTFAIADEEDYAGEVKDLGLSESGEDVNAAILDESGKKFAMEPEEFDSDTLREFVTAFKKGKLKPVIKSQPVPKNNKGPVKVVVGKTFDSIVMDPKKDVLIEFYAPWCGHCKQLEPVYNSLAKKYKGQKGLVIAKMDATANDVPSDRYKVEGFPTIYFAPSGDKKNPVKFEGGDRDLEHLSKFIEEHATKLSRTKEEL
B2: U4/U6.U5 tri-snRNP-associated protein 1 (protein, UniProt O43290 1-800)
chain: MGSSKKHRGEKEAAGTTAAAGTGGATEQPPRHREHKKHKHRSGGSGGSGGERRKRSRERGGERGSGRRGAEAEARSSTHGRERSQAEPSERRVKREKRDDGYEAAASSKTSSGDASSLSIEETNKLRAKLGLKPLEVNAIKKEAGTKEEPVTADVINPMALRQREELREKLAAAKEKRLLNQKLGKIKTLGEDDPWLDDTAAWIERSRQLQKEKDLAEKRAKLLEEMDQEFGVSTLVEEEFGQRRQDLYSARDLQGLTVEHAIDSFREGETMILTLKDKGVLQEEEDVLVNVNLVDKERAEKNVELRKKKPDYLPYAEDESVDDLAQQKPRSILSKYDEELEGERPHSFRLEQGGTADGLRERELEEIRAKLRLQAQSLSTVGPRLASEYLTPEEMVTFKKTKRRVKKIRKKEKEVVVRADDLLPLGDQTQDGDFGSRLRGRGRRRVSEVEEEKEPVPQPLPSDDTRVENMDISDEEEGGAPPPGSPQVLEEDEAELELQKQLEKGRRLRQLQQLQQLRDSGEKVVEIVKKLESRQRGWEEDEDPERKGAIVFNATSEFCRTLGEIPTYGLAGNREEQEELMDFERDEERSANGGSESDGEENIGWSTVNLDEEKQQQDFSASSTTILDEEPIVNRGLAAALLLCQNKGLLETTVQKVARVKAPNKSLPSAVYCIEDKMAIDDKYSRREEYRGFTQDFKEKDGYKPDVKIEYVDETGRKLTPKEAFRQLSHRFHGKGSGKMKTERRMKKLDEEALLKKMSSSDTPLGTVALLQEKQKAQKTPYIVLSGSGKSMNANTITK

This is an account of results in PMC10362638.

These are yes or no findings as the source states them, for the method shown. In cells and extracts the contact can be indirect. Some results given as binding are weak or reduced against the parent protein; the word gives no strength.

In the test the target is SBP-FGFR1 (wild type fibroblast growth factor receptor 1 tagged N-terminally with streptavidin binding peptide) (UniProt P11362). The test is described as follows: proximity ligation; Duolink in situ PLA on cells fixed with 4% paraformaldehyde and permeabilised with 0.1% Triton (U2OS-SBP-R1.GF; U2OS-SBP-R1 in Figure S3).
In the case of Hsp90α (from UniProt P07900 1-732), the binding entry was “binds weakly”.
With B1 the entry was “binds weakly”.
Regarding B2, the binding entry was “binds weakly”.
